Source: paper doi:10.1101/2025.06.16.659960

The chains behind the UniProt entries cited, without tags or fusion partners.
UniProt G5EFM9: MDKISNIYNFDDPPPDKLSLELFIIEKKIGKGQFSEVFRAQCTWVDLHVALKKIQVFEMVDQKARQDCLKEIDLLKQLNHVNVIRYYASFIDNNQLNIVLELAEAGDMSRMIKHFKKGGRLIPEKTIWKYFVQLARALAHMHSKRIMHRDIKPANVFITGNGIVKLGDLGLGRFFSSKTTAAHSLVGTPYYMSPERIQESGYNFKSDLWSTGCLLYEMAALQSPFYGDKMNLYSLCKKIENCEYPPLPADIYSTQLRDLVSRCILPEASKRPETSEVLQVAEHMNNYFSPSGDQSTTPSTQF
UniProt G5EDY0: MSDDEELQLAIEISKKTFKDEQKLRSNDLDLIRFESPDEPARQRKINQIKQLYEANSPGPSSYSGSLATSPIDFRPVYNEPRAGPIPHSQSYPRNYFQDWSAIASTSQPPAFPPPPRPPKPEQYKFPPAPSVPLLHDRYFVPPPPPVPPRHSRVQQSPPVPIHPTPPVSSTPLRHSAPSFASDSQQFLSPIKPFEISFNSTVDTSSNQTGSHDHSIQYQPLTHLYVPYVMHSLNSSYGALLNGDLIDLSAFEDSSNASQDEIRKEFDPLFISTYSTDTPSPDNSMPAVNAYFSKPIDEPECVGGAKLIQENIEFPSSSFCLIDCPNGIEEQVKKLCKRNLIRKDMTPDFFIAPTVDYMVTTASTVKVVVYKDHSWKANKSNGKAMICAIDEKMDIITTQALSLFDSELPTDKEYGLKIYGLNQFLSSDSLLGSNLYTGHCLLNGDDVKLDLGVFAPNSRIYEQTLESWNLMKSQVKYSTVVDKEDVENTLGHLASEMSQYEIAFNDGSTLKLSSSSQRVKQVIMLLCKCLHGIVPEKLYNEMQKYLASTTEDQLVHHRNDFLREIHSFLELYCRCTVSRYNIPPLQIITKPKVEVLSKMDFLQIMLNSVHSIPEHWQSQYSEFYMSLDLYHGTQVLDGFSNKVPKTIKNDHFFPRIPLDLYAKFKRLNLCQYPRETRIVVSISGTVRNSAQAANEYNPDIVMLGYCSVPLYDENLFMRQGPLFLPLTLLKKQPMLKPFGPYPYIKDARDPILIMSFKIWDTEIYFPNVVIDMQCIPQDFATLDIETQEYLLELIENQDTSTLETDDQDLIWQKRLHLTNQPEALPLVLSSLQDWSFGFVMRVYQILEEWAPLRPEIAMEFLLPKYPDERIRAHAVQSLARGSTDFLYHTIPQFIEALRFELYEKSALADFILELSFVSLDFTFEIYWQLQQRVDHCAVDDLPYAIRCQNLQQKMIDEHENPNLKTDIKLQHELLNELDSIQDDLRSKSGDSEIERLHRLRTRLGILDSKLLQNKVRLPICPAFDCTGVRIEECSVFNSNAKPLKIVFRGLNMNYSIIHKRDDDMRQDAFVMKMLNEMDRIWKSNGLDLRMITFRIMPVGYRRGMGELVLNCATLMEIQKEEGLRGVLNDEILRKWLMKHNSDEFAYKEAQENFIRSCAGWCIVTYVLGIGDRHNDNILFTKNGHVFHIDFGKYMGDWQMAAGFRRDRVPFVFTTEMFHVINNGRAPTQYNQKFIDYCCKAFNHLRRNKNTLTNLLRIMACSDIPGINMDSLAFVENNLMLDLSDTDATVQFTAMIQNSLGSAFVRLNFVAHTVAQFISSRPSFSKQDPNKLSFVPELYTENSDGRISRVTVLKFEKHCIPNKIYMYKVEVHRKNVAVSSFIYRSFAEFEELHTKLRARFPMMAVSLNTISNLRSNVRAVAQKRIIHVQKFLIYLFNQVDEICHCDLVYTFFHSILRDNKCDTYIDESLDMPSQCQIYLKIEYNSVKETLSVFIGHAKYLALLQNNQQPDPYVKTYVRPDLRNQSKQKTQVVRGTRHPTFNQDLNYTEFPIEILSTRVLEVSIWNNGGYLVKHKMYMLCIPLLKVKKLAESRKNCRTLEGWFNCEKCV

T1: NEKL-2::TurboID (C. elegans) (UniProt O01775)
T1 sequence: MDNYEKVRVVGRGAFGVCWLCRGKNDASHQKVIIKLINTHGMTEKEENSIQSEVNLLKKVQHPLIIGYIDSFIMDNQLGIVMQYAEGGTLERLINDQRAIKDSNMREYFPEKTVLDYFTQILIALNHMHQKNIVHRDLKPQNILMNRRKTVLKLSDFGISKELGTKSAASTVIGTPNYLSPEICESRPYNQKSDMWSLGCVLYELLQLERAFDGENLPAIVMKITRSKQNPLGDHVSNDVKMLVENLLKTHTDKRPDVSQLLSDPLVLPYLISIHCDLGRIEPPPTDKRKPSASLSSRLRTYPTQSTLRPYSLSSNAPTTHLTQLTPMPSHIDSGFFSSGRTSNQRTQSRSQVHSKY

T2: TurboID::NEKL-2 (C. elegans) (UniProt O01775)
T2 sequence: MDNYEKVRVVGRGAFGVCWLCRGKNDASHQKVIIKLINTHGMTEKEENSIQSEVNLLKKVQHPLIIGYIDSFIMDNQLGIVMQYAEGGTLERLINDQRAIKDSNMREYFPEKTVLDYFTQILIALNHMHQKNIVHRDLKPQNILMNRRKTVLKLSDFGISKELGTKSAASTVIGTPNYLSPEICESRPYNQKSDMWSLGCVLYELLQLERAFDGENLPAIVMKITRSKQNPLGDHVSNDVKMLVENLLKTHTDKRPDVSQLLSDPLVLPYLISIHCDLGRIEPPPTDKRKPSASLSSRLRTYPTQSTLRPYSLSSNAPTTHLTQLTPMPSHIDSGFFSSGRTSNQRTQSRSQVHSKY


Experiments:
Assay in all cases: proximity labelling
[1] = molecular target: T1, NEKL-2::TurboID (C. elegans)
[2] = molecular target: T2, TurboID::NEKL-2 (C. elegans)
[3] = molecular target: T1, NEKL-2::TurboID (C. elegans); remark: listed apart in the source
[4] = molecular target: NEKL-3::TurboID (C. elegans) (UniProt G5EFM9)
[5] = molecular target: MLT-3::TurboID (C. elegans)

Row | Molecule | binding [1] | also measured
1 | EEA-1 (C. elegans (endogenous in worms)) | binds | –
2 | FCHO-1 (C. elegans (endogenous in worms)) | binds | –
3 | MLT-2 (from UniProt Q17583) | binds | binding [2]: binds
4 | MLT-3 (C. elegans (endogenous in worms)) | binds | –
5 | MLT-4 (C. elegans (endogenous in worms)) | binds | –
6 | NEKL-3 (from UniProt G5EFM9 1-302) | binds | –
7 | PIKI-1 (from UniProt G5EDY0 1-1607) | binds | –
8 | TAT-1 (protein, UniProt Q9U280 1-1139) MPTEARDNNRHIHLGKVRDPHHQHAQRFCSNRISTCKYNGFSFLPRFLYEQFRRYNNIFFLAIALLQQIPDVSPTGRYTTAVPFLIILSVSALKEIFEDVKRRRSDNKVNAFSVEILVDGHWIEKQWKDVSVGDFIRIDNDSLFPADLLLLASSEQQGMAYIETSNLDGETNLKIKQALDITSTMTSPEKLSQFESEITCEPPSRHVNEFNGNIEINGVARHFGIDQLLLRGARLKNTAWIFGAVIYTGHDSKLLMNSKRAPLKSGTIDVQTNYRIIFLFFVLVALALISATGSEIWRGNNIPQAWYLSFLEHDPKGSFLWGVLTFFILYNNLIPISLQVTLEVVRFFQAIYINNDIEMYDVNSDSCAIARTSNLNEELGQVKFIMSDKTGTLTRNVMKFKRLSIGSRNYGNNEDDEFADASLIEDYRQGDEHSTSILEVLKMMAVCHTVVPENKDGQLIYQSSSPDEAALVRGAASQSVSFHTRQPQKVICNVFGEDETIEILDVIDFTSDRKRMSVIVRDGAGGDIKLYTKGADTVIFERLEHGKEQEEAVEYCTEHLEDYASFGYRTLCFSMRHLTEQEYSQWAPEYKKAILAIDNRAKLLADAAEKLERNMILVGATAIEDKLQEWVPETIQALMAADIRVWMLTGDKRETAINIAHSCALCHTNTELLIVDKTTYEETYQKLEQFVARAIELEKQEKGFAMVIDGKSLLHALTGEARKHFGDLALRCHAVVCCRMSPMQKAEVVEMVRKLAKHVVLAIGDGANDVAMIQAANVGVGISGEEGLQAASASDYAIPRFHFLRRLLLVHGAWNHDRSVKVILYSFYKNICLYIIELWFAMFSAWSGQTIFERWTIGMFNVIFTAWPPVVLGLFDHPVPAEQIMKYPALYASFQNRAFSIGNFSLWIGLAIVHSLSLFFLTYATMEHQVVWDNGLTGGWLMLGNCAYTFVVATVCFKALLECDSWTWPVVVACIGSIGLWIVFVIVYSLVFPHIGGIGADMAGMAAIMMSSYTFWLALLFIPLATLLWDLVIKSLFTIAMPTPRELAVMYNKRTTSFNGFERLASYSSNVLENMRLLTSSLRGSTTGSTRSRTASEASLALAEQTRYGFAFSQDESSAVAQTELIRNVDSTREKPTGR | – | binding [3]: binds
9 | UNC-16 (protein, UniProt P34609 1-1190) MACNLSPVNEMADSITSSTPSEIVYGGPGSPDEHRTMSDKVQTMASAIYRELETMIKVHGEDGVKTLMPLVVNVLEALDLAYLERDEQTAELEMLKEDNEQLQTQYEREKALRKQTEQKYIEIEDTLIGQNKELDKKIESLESIMRMLELKAKNATDHASRLEEREVEQKLEFDRLHERYNTLLRTHVDHMERTKYLMGSEKFELMQNMPLPNMQLRNKMGMAASVDASSIRGVSDLISAHMTQSTTMDVNLANHITNEDWQDEFSSDIEPSPRDIPQSSADALTSPITTKEPTPKREAASPKQSEEEEADETTSVDPKENNDLLGADLTDDESDWNGLGLIPRRHRPNEMLDDDDTSDDGSLGMGREVENLIKENSELLDMKNALNIVKNDLINQVDELNSENMILRDENLSRQMVSEKMQEQITKHEEEIKTLKQKLMEKENEQEEDDVPMAMRKRFTRSEMQRVLMDRNAYKEKLMELEESIKWTEMQRAKKMQQQQQNVNQKKSGGIWEFFSSLLGDSVTPPASSRGNRASSSRGKMTRSVEYIDPDMISERRAAERREQYKLVREHVKKEDGRIEAYGWSLPNVEAEVSSVPIPVCCRPLLDNEPSLKIWCATGVVLRGGRDERGQWIVGDPIYFAPASMKKTKTSNHRPELEDEIKRARNLDARESELDEWQSSSLVWVVSSNQGKSLIAVLDANNPNNIIETFPACDSHLLCIQAVSGVMEGEPEMNEEQSKKYLSGGGKIKDLPEGLDGTDLGACEWVELRKMEDSEDGVPTYCSNDMKPSPKRTRDFSISEVAPVDSSAPVKEDPLPPPANRPGGRAALPPHIRDAMSKYDGVSGQMSGALPTVWMGGQNQYIYIHSAVTAWKQCLRRIKMPDAVLSIVHYKSRIFAALANGTIAIFHRNKHGEWSDEGYHSLRVGSATSSVRSLCLVSTNIWATYKNCVVVLDAESLQIVKVFAAHPRKDSQVRNMQWVGAGVWLSIRLDSTLRLYHAHTYEHLQDVDIEPYVTKMLGTSKLDFSYMRTTALLVSNRRLWIGTGTGVIISVPFSGQLEKKIETKDSKRPAGPGGLVRVYGATSENATNDEKTNDDFIPYCNLAHAQLSFHGHKDSVKFFLGVPGASKNGEDESAEVTLRRMLIMSGGDGYIDFRIGEENEPELTGQSIRPRDMSHLIIWEVDAELPILSK | – | binding [4]: binds
10 | CDC-37 (protein, UniProt O02108 1-370) MPIDYSKWKDIEVSDDEDDTHPNIDTPSLFRWRHQARLERMAEKKMEQEKIDKEKGTTSKKMEELEKKLAAADVTDKSDIQKQIDEVKAQEEAWRKKEAELEEKERLEPWNVDTIGHEAFSTSRINKITEKKPQAPKTDEEDTHAMSTFFETHESLLEKMAVLKNGAKSTELFLAEHPHMASEYTANWLTIEALNAAIDFNEEKMKTMAEQCIIIQYLLELSKSLNAVATNTTVQKQFFKKFEAAEPVYMKHYQDEVKAFEDRLRTRAQTKRDAAMEEAEAEEKAERMKSAPGGIDPQEVFEQLPEEMRKCFEAHDIEALKGVAQKMDEEVFKYHFDRCIASGLWVPGKADDDDDDEEAAPAEEEPTTSS | – | binding [3]: binds
11 | NEKL-2 (protein, UniProt O01775 1-357) MDNYEKVRVVGRGAFGVCWLCRGKNDASHQKVIIKLINTHGMTEKEENSIQSEVNLLKKVQHPLIIGYIDSFIMDNQLGIVMQYAEGGTLERLINDQRAIKDSNMREYFPEKTVLDYFTQILIALNHMHQKNIVHRDLKPQNILMNRRKTVLKLSDFGISKELGTKSAASTVIGTPNYLSPEICESRPYNQKSDMWSLGCVLYELLQLERAFDGENLPAIVMKITRSKQNPLGDHVSNDVKMLVENLLKTHTDKRPDVSQLLSDPLVLPYLISIHCDLGRIEPPPTDKRKPSASLSSRLRTYPTQSTLRPYSLSSNAPTTHLTQLTPMPSHIDSGFFSSGRTSNQRTQSRSQVHSKY | – | binding [5]: binds

Like-named read-outs stand apart in the source and are kept apart here. No constants are given. Whether binding was seen depends on the method and setting. In cells and extracts the contact can be indirect. These calls come from enrichment with a bait or labelling near it, and not all partners need be listed.
